The other results are listed elsewhere or left out.
Compound: NC1(c2ccc(-c3nc4ccn5c(=O)[nH]nc5c4cc3-c3ccccc3)cc2)CCC1
Assay: log2 fold change, soluble protein after heating vs DMSO (PISA); higher = thermal stabilisation; K562 cells, 10 uM, 30 min; active = over 0.2 and 3.5 SD of the protein, either way, in both replicates (recomputed)
How it was run: (§1)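 Soluble protein was defined as the supernatant after 21,000xg for 90 min. It came from K562 cells at 2×10^6 cells/mL given 10 μM compound for 30 min, heated in aliquots for 3 min across 48°C-58°C, pooled, and extracted in PBS with 0.5% NP-40 at 4°C, and was quantified by TMTpro 16plex LC-MS/MS with equalised channel sums. Thermal stability against control samples, from duplicates, is reported as log2 fold change.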

The chains behind the UniProt entries cited, without tags or fusion partners. Where a name states a change or a piece, a line headed by the entry shows the natural chain unless it says otherwise.
UniProt Q96CP7: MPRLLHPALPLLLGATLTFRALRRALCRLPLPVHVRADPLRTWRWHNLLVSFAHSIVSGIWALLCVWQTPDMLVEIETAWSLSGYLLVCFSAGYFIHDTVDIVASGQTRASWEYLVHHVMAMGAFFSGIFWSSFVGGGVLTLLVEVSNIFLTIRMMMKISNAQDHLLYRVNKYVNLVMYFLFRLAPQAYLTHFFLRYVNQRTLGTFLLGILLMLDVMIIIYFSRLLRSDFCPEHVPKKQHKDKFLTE
UniProt Q9ULP9: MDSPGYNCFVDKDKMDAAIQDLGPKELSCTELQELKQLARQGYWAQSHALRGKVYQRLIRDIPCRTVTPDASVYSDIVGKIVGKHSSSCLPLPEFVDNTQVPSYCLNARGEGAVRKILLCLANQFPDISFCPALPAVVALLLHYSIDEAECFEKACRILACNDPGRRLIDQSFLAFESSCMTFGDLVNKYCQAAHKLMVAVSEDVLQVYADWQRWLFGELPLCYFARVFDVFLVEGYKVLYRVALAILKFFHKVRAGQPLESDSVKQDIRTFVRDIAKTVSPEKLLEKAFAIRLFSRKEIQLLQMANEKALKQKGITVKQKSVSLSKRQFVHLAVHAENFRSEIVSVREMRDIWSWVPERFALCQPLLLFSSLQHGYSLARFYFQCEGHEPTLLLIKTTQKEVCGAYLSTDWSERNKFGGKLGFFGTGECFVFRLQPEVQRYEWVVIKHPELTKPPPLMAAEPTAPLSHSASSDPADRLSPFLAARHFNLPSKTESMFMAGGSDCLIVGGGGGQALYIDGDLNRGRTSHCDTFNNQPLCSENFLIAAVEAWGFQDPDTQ
UniProt Q96BS2: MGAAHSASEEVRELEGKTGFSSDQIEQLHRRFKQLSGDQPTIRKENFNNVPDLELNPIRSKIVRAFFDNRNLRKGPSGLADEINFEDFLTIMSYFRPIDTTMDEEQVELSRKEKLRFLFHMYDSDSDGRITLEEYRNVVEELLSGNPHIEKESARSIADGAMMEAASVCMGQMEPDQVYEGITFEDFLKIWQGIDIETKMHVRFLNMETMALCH
UniProt O60343: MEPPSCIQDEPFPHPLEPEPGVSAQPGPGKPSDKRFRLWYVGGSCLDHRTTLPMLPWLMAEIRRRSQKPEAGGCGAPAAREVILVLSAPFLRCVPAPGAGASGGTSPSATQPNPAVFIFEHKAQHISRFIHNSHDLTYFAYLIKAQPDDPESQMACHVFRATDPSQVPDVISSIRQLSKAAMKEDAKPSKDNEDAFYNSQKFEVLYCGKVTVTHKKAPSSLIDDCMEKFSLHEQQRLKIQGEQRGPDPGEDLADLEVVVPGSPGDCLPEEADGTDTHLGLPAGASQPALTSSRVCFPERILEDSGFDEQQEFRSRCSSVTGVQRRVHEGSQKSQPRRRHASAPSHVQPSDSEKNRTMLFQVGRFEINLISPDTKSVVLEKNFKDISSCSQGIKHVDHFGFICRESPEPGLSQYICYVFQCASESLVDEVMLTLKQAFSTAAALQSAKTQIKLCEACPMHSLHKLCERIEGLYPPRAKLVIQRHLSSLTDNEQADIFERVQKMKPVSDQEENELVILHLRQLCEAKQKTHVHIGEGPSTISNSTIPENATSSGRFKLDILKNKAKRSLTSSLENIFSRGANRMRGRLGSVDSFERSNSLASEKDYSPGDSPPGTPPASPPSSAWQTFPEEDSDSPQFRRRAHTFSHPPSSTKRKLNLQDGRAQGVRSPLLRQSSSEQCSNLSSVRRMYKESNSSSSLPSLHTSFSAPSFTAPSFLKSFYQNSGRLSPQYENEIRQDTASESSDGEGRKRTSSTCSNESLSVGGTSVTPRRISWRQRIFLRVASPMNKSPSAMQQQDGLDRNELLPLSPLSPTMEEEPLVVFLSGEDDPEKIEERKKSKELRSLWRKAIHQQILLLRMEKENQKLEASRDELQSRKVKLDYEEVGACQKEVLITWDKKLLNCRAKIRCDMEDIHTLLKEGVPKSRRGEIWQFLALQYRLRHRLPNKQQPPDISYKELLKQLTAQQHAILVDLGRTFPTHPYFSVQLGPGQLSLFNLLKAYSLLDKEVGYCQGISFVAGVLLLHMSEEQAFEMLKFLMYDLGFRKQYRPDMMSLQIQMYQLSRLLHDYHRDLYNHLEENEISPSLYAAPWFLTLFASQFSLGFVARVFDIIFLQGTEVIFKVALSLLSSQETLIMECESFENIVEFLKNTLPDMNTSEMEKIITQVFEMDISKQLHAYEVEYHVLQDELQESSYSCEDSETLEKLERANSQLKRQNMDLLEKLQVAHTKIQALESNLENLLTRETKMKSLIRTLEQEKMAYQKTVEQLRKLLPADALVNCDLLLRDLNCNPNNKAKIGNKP
UniProt Q8IWB9: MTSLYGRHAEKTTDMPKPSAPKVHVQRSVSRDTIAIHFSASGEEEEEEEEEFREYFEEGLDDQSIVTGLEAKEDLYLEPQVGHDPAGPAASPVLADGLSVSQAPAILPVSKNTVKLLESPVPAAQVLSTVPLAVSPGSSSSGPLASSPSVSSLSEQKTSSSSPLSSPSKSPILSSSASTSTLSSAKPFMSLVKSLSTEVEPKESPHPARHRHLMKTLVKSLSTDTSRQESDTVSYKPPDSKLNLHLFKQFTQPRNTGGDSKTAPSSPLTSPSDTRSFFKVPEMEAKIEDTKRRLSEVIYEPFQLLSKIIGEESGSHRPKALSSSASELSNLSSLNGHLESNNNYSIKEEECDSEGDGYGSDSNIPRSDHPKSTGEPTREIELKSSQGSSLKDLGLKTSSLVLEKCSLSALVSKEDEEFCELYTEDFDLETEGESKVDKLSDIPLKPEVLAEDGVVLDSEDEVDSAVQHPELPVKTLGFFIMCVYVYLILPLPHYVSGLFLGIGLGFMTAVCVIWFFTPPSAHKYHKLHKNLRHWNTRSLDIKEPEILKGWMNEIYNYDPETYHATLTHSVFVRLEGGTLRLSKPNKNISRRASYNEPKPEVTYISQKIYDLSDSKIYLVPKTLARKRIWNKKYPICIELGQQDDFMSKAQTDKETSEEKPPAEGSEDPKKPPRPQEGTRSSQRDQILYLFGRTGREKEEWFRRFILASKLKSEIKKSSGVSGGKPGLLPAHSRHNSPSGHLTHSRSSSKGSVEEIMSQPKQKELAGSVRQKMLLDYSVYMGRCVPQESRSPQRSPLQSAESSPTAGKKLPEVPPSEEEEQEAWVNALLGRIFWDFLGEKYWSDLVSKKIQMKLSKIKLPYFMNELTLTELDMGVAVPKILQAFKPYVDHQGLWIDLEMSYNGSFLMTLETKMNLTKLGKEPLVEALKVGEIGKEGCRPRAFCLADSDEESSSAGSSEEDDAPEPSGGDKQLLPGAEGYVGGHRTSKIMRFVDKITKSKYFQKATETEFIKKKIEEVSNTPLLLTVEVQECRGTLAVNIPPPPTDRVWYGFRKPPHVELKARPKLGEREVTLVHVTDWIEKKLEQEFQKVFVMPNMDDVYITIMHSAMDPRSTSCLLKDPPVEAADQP
UniProt P01033: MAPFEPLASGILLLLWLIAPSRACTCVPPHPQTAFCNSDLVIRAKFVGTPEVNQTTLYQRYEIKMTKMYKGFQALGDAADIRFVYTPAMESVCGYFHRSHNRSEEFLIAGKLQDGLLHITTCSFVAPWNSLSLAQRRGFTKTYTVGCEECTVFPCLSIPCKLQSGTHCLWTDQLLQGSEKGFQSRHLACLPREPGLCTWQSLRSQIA
UniProt O95455: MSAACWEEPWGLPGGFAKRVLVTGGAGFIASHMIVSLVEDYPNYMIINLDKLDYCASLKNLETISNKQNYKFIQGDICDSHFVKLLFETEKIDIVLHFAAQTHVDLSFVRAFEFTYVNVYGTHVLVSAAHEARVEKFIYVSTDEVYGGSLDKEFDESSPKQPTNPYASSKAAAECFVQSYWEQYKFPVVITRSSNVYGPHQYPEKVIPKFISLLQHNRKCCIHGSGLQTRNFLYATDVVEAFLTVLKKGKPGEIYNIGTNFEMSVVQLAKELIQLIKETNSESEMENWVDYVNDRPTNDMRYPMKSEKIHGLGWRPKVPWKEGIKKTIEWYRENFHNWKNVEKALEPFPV
UniProt O60830: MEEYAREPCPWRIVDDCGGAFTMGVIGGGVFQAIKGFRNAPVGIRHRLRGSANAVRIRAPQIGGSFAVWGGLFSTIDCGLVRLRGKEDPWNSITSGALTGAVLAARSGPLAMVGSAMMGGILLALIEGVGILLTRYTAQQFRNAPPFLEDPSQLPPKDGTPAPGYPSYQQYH
UniProt Q9Y5J7: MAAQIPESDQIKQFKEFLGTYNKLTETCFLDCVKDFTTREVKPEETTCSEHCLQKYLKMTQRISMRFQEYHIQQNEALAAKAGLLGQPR
UniProt Q15582: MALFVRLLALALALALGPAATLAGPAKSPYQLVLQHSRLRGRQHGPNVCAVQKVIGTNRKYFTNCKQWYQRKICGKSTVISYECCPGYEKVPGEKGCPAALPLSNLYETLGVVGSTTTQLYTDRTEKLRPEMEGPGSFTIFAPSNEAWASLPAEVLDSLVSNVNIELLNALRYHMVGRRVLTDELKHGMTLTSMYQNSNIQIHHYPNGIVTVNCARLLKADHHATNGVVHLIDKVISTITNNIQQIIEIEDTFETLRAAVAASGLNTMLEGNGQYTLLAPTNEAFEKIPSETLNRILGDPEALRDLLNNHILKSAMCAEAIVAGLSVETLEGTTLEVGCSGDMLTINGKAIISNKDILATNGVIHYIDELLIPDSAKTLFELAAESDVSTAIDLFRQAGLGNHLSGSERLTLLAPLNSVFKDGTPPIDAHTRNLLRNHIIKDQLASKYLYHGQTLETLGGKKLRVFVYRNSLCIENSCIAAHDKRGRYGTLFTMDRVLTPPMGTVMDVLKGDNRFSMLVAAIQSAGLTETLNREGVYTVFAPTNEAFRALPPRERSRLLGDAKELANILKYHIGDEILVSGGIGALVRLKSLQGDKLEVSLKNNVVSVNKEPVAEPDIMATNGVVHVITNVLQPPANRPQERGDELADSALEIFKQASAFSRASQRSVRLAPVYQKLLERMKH
UniProt Q9UP52: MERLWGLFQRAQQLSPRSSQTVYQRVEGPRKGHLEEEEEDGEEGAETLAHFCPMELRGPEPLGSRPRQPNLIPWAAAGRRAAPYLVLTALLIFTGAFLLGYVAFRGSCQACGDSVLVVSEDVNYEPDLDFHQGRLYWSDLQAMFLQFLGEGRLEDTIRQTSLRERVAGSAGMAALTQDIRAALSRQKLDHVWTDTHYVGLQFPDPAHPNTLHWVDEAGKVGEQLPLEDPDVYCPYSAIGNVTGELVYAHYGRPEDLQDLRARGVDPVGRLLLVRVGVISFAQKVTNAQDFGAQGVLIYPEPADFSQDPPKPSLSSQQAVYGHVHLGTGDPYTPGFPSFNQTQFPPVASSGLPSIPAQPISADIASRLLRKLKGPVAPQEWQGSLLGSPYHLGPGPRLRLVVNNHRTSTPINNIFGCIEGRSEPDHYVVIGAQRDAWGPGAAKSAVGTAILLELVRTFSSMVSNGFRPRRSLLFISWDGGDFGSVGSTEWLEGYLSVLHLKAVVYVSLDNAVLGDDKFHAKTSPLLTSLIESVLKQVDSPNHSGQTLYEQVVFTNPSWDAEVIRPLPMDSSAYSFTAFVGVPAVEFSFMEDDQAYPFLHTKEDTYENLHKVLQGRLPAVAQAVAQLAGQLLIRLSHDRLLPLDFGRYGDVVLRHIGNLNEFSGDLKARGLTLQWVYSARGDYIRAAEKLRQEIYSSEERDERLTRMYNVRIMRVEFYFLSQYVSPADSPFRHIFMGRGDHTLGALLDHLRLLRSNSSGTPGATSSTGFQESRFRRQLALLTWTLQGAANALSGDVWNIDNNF
UniProt Q9HA65: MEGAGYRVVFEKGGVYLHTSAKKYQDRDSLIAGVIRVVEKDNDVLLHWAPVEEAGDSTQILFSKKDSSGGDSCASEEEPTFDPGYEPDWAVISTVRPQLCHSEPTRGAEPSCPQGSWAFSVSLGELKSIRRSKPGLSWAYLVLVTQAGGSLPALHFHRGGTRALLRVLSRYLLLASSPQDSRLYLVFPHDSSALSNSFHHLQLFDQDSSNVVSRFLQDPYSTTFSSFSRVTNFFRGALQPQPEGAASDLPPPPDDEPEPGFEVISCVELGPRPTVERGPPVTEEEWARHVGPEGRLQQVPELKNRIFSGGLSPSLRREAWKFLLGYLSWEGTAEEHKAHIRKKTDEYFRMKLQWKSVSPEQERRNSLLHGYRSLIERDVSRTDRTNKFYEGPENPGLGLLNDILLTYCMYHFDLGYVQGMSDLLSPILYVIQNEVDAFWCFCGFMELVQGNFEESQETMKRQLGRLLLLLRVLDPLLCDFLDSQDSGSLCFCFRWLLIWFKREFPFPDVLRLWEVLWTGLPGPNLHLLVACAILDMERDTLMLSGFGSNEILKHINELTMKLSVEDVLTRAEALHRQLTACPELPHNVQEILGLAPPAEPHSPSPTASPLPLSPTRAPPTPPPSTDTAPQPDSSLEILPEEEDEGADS
UniProt Q9Y5J6: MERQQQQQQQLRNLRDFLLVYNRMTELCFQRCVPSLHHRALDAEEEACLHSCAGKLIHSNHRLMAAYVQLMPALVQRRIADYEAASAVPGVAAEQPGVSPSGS
UniProt Q9Y5L4: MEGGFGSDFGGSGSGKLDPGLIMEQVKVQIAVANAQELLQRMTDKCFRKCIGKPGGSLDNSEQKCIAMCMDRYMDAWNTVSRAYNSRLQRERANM

| Target | log2 fold change |
| --- | --- |
| TLCD1 (UniProt Q96CP7) | inactive: -0.061 |
| TBC1D24 (UniProt Q9ULP9) | inactive: -0.091 |
| TESC (UniProt Q96BS2) | inactive: -0.003 |
| TBC1D4 (UniProt O60343) | inactive: -0.089 |
| TEX2 isoform 2 (UniProt Q8IWB9) | inactive: 0.129 |
| TIMP1 (UniProt P01033) | inactive: 0.089 |
| TBC1D2B (UniProt Q9UPU7) | inactive: 0.038 |
| TGDS (UniProt O95455) | inactive: -0.01 |
| TIMM17B (UniProt O60830) | inactive: -0.003 |
| TIMM9 (UniProt Q9Y5J7) | inactive: 0.004 |
| TBL1XR1 (UniProt Q9BZK7) | inactive: 0.03 |
| TGFBI (UniProt Q15582) | inactive: -0.116 |
| TFR2 (UniProt Q9UP52) | active: -0.601 |
| TBC1D17 (UniProt Q9HA65) | inactive: -0.051 |
| THOC3 (UniProt Q96J01) | inactive: -0.038 |

Compound: NCC(=O)Nc1ccc(-n2nc(C(F)(F)F)cc2-c2ccc3c(ccc4ccccc43)c2)cc1
Assay: as above
How it was run: as §1

| Target | log2 fold change |
| --- | --- |
| TBC1D14 (UniProt Q9P2M4) | inactive: 0.091 |
| TLCD3A (UniProt Q8TBR7) | inactive: 0.003 |
| TGOLN2 isoform 7 (UniProt O43493) | inactive: 0.01 |
| TIMMDC1 (UniProt Q9NPL8) | inactive: 0.049 |
| THOC2 (UniProt Q8NI27) | inactive: -0.083 |
| TFPI (UniProt P10646) | inactive: -0.003 |
| THYN1 (UniProt Q9P016) | inactive: -0.103 |
| THRAP3 (UniProt Q9Y2W1) | inactive: -0.037 |
| TK1 (UniProt K7ERV3) | inactive: 0.022 |
| TCOF1 isoform 6 (UniProt Q13428) | inactive: 0.077 |
| THBS1 (UniProt P07996) | inactive: 0.01 |
| TIMM22 (UniProt Q9Y584) | inactive: 0.303 |
| TDRD15 (UniProt B5MCY1) | inactive: -0.347 |
| TIMM10B (UniProt Q9Y5J6) | inactive: -0.007 |
| TBK1 (UniProt Q9UHD2) | inactive: -0.118 |
| TKT, A0A0B4J1R6 | inactive: -0.444 |
| TGFB1 (UniProt P01137) | inactive: -0.022 |
| THUMPD1 (UniProt Q9NXG2) | inactive: -0.021 |
| TGS1 (UniProt Q96RS0) | inactive: -0.018 |

| Target | log2 fold change |
| --- | --- |
| TIMM13 (UniProt Q9Y5L4) | inactive: 0.012 |
| TENT5C (UniProt Q5VWP2) | inactive: -0.32 |
| TCF12 isoform 3 (UniProt Q99081) | inactive: -0.121 |
| THOC6 (UniProt Q86W42) | inactive: -0.032 |
| TLCD1 (UniProt Q96CP7) | inactive: -0.105 |
| TBC1D24 (UniProt Q9ULP9) | inactive: -0.002 |
| TESC (UniProt Q96BS2) | inactive: 0.036 |
| TBC1D4 (UniProt O60343) | inactive: 0.013 |
| TEX2 isoform 2 (UniProt Q8IWB9) | inactive: 0.136 |
| TIMP1 (UniProt P01033) | inactive: 0.031 |
| TGDS (UniProt O95455) | inactive: -0.046 |
| TIMM17B (UniProt O60830) | inactive: 0.037 |
| TIMM9 (UniProt Q9Y5J7) | inactive: -0.012 |
| TBL1XR1 (UniProt Q9BZK7) | inactive: -0.027 |
| TGFBI (UniProt Q15582) | inactive: -0.116 |
| TFR2 (UniProt Q9UP52) | inactive: 0.007 |
| TBC1D17 (UniProt Q9HA65) | inactive: -0.147 |
| THOC3 (UniProt Q96J01) | inactive: 0.012 |

Compound: Nc1ccccc1NC(=O)c1ccc(CNC(=O)OCc2cccnc2)cc1 [entinostat]
Assay: as above
How it was run: as §1

| Target | log2 fold change |
| --- | --- |
| TBC1D14 (UniProt Q9P2M4) | inactive: 0.306 |
| TLCD3A (UniProt Q8TBR7) | inactive: -0.023 |
| TGOLN2 isoform 7 (UniProt O43493) | inactive: -0.021 |
| TIMMDC1 (UniProt Q9NPL8) | inactive: 0.009 |
| THOC2 (UniProt Q8NI27) | inactive: 0.01 |
| TFPI (UniProt P10646) | inactive: -0.047 |
| THYN1 (UniProt Q9P016) | inactive: -0.004 |
| THRAP3 (UniProt Q9Y2W1) | inactive: 0.024 |
| TK1 (UniProt K7ERV3) | inactive: -0.071 |
| TFDP2 (UniProt Q14188) | inactive: 0.129 |
| TCOF1 isoform 6 (UniProt Q13428) | inactive: 0.23 |
| THBS1 (UniProt P07996) | inactive: -0.067 |
| TIMM22 (UniProt Q9Y584) | inactive: 0.004 |
| TDRD15 (UniProt B5MCY1) | inactive: -0.272 |
| TIMM10B (UniProt Q9Y5J6) | inactive: 0.016 |
| TBK1 (UniProt Q9UHD2) | inactive: 0.055 |
| TKT, A0A0B4J1R6 | inactive: -0.071 |
| TGFB1 (UniProt P01137) | inactive: -0.024 |
| THUMPD1 (UniProt Q9NXG2) | inactive: -0.01 |
| TGS1 (UniProt Q96RS0) | inactive: 0.092 |

| Target | log2 fold change |
| --- | --- |
| TIMM13 (UniProt Q9Y5L4) | inactive: 0.01 |
| TENT5C (UniProt Q5VWP2) | inactive: 0.035 |
| TCF12 isoform 3 (UniProt Q99081) | inactive: -0.001 |
| THOC6 (UniProt Q86W42) | inactive: -0.029 |
| TLCD1 (UniProt Q96CP7) | inactive: 0.031 |
| TBC1D24 (UniProt Q9ULP9) | inactive: 0.029 |
| TESC (UniProt Q96BS2) | inactive: -0.003 |
| TBC1D4 (UniProt O60343) | inactive: 0.026 |
| TEX2 isoform 2 (UniProt Q8IWB9) | inactive: -0.061 |
| TIMP1 (UniProt P01033) | inactive: -0.082 |
| TBC1D2B (UniProt Q9UPU7) | inactive: -0.072 |
| TGDS (UniProt O95455) | inactive: -0.158 |
| TIMM17B (UniProt O60830) | inactive: -0.063 |
| TIMM9 (UniProt Q9Y5J7) | inactive: 0.145 |
| TBL1XR1 (UniProt Q9BZK7) | inactive: -0.041 |
| TGFBI (UniProt Q15582) | inactive: 0.056 |
| TFR2 (UniProt Q9UP52) | inactive: 0.007 |
| TBC1D17 (UniProt Q9HA65) | inactive: 0.004 |
| THOC3 (UniProt Q96J01) | inactive: -0.048 |

— the supplement of paper PMC10849652
